This experiment can be described thus: qHTS Assay to Find Inhibitors of Chronic Active B-Cell Receptor Signaling. Particulars: ABC-DLBCL IkBa-CBG/CBR reporter, luminescence ratio (green luciferase fused to IkBa over red control in TMD8 lymphoma cells), 4 h. The procedure, abridged:
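Cell line TMD8 (human ABC DLBCL), stably expressing tet-inducible CBG68-IkBa fusion and CBR; IMDM/0.5% FBS; cpd up to 46 uM; dox induction, 4 h, 37C/5% CO2; dual luminescence; green/red ratio; MG132 control.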
On the technique in general: Quantitative high-throughput screening tests each substance at several concentrations.

[1] abbreviates: measured here: CBR red luminescence, cell number.
Setting [2] is: measured here: IkBa-CBG green luminescence.

The other results are listed elsewhere or left out. The main result of the screen is listed elsewhere. These columns were measured beside it and carry no call. The list favours compounds with an active or inconclusive main result. Potencies come from curve fits of mixed quality, noted in brackets.

For the compound `CCOc1ccc(S(=O)(=O)Nc2ccc(C(=O)NCC(c3ccco3)N3CCCCC3)cc2)cc1` (stereo not given), under setting [1], the AC50 was 16.4 µM [falling, single point]. For `Cc1ccc(C(=O)COC(=O)c2cccs2)cc1`, the AC50 under setting [1] was 20.6 µM [falling, single point].

As to `COc1ccccc1OCCOCCOc1ccc(C)cc1Br`, under setting [1], the AC50 is 18.4 µM [rising, partial curve, poor fit]. Same read-out and setting: under `O=c1cc(-c2ccc(O)cc2)oc2ccc3ccccc3c12` stands 23.1 µM [falling, single point]; under `Cn1c2ccccc2c(=O)c2cc(C#Cc3ccc(N)cc3)ccc21`, 11.2 µM [rising, single point]. The same measure, in the same setting: the value for `N#CC1(c2ccccc2)CCCN1C(=O)c1ccccc1Cl` (stereo not given) was 6.51 µM [rising, partial curve, poor fit]. Turning to `COc1ccc([C@@H]2[C@@H]3C(=O)N(C(C)(C)C)C(=O)[C@@H]3[C@]3(Cc4ccccc4)C(=O)N(c4cccc(Cl)c4)C(=O)N23)cc1`, the AC50 under setting [2] was 29.1 µM [rising, partial curve, poor fit].

As for `Cc1cc(C(=O)CCl)c(C)n1-c1cccc([N+](=O)[O-])c1`, the concentration at half-maximal activity (AC50) under setting [1] was 12.6 µM [falling, partial curve]. On the same count and under the same terms, the value for `CCN(CC)c1ccc(C2Nc3cccc4cccc(c34)N2)cc1` was 7.08 µM [falling, full curve, poor fit].

In the case of `O=C(NNc1cccc(Cl)n1)c1c(F)cccc1F`, under setting [1], the AC50 was 35.5 µM [rising, single point]. The same measure, in the same setting: under `Cc1cccc(NC(=O)Nc2ccc(C)c(C)c2)n1` stands 0.461 µM [rising, full curve, poor fit]; under `Cc1cc2c(c(=O)o1)C(Cc1ccccc1)C(C#N)=C(N)O2` (stereo not given), 0.291 µM [falling, full curve, poor fit]; under `CC1=NNC(=O)C1CCC(=O)N/N=C\c1ccc(Cl)c(Cl)c1` (stereo not given), 12.6 µM [falling, partial curve]. On the same count and under the same terms, the value for `CCOc1cc(N2CCOCC2)c(OCC)cc1NC(=O)c1ccccc1C` was 6.31 µM [rising, full curve].

On to `CCc1ccc(OC(=O)c2cncc(Br)c2)cc1`, for which the AC50 under setting [1] was 35.5 µM [falling, single point].

For the compound `Cc1cc(NS(=O)(=O)c2ccc(NC(=S)Nc3ccc(Cl)cc3C)cc2)no1`, the half-maximal activity concentration (AC50) under setting [1] was 35.5 µM [falling, single point]. On the same count and under the same terms, the value for `CN(C)c1ccc(S(=O)(=O)N(C)C)cc1[N+](=O)[O-]` was 20 µM [rising, single point]; that for `N#C/C(=C\c1ccc(F)cc1)c1n[nH]c(Cn2cncn2)n1` was 29.1 µM [falling, single point]; that for `Nn1c(SCc2ccccc2F)nnc1-c1ccccn1` was 31.6 µM [falling, single point]. On the same count and under the same terms, the value for `O=C(O)c1cccc(NC(=S)NC(NC(=O)c2ccccc2[N+](=O)[O-])C(Cl)(Cl)Cl)c1` (stereo not given) was 0.0891 µM [falling, full curve, poor fit]; that for `CC#CCN1c2ccccc2[C@]23C[C@@H](C(=O)OC)N(C(=O)c4ccco4)C2=NC(C(=O)OC)=C(C(=O)OC)[C@H]13` was 6.31 µM [rising, single point]; that for `COc1ccc(C2(CNC(=O)c3cccc([N+](=O)[O-])c3)CCOCC2)cc1` was 13 µM [rising, partial curve]. Still for that read-out and setting: under `Cc1ccc(S(=O)(=O)N2CCCOC2CNC(=O)C(=O)NCc2cccs2)cc1` (stereo not given) stands 20.6 µM [rising, partial curve]. As for `CCC(OC(=O)c1cccs1)C(=O)NCc1ccco1` (stereo not given), the AC50 under setting [1] was 29.1 µM [falling, single point].

As for `COC(=O)c1cc(OC)c(OC)cc1NC(=O)Cc1ccccc1[N+](=O)[O-]`, the AC50 under setting [1] is 3.16 µM [falling, partial curve, poor fit]. Turning to `CCN(Cc1ccccc1)C(=O)COC(=O)c1n[nH]c2ccccc12`, the AC50 under setting [1] was 9.2 µM [falling, partial curve]. On the same count and under the same terms, the value for `COc1ccccc1OCC(=O)NC1CCCc2ccccc21` (stereo not given) was 1.58 µM [falling, partial curve, poor fit]; that for `O=C(CSc1nccn1-c1ccc(Cl)cc1)NCc1ccc2c(c1)OCO2` was 2.59 µM [falling, partial curve, poor fit]; that for `COc1ccc(N(CC(=O)O)S(=O)(=O)c2ccc(C)cc2)cc1Cl` was 31.6 µM [rising, single point]. Still for that read-out and setting: under `NS(=O)(=O)c1ccc(CNC(=O)/C=C/c2c(Cl)cccc2Cl)cc1` stands 22.4 µM [falling, partial curve, poor fit]. Turning to `O=C(NC1CC1)C(=O)c1c[nH]c2ccccc12`, the concentration at half-maximal activity (AC50) under setting [1] was 17.8 µM [falling, single point].

Take `COc1cc(CC(=O)OCC(=O)Nc2ccccc2C#N)cc(OC)c1OC`: under setting [1], the AC50 was 3.26 µM [rising, partial curve, poor fit]. Still for that read-out and setting: under `Cc1cccc([C@@H]2[C@@H]3C(=O)N(Cc4ccccc4)C(=O)[C@@H]3[C@]3(CC(C)C)C(=O)N(c4cccc(Cl)c4)C(=O)N23)c1` stands 2 µM [falling, full curve, poor fit]. Regarding `O=C1NC(=O)/C(=C/c2ccc(O)cc2)S1`, under setting [1], the AC50 is 10 µM [falling, partial curve, poor fit]. For the compound `O=C(CCC(=O)Nc1ccccc1)N/N=C/c1ccncc1`, the AC50 under setting [1] was 7.94 µM [falling, partial curve, poor fit]. Same read-out and setting: under `O=C1CN(C(=O)COC(=O)CCS(=O)(=O)c2ccccc2Cl)c2ccccc2N1` stands 25.9 µM [falling, single point]. Turning to `CNS(=O)(=O)c1cn(CC(=O)NCc2ccccc2OC)cc1S(=O)(=O)NC`, under setting [2], the half-maximal activity concentration (AC50) was 11.2 µM [rising, partial curve, poor fit]. For `Cc1cc(C)cc(CC2CC(=O)N(c3ccc([N+](=O)[O-])cc3)C2=O)c1` (stereo not given), the AC50 under setting [1] is 0.562 µM [rising, full curve, poor fit]. Same read-out and setting: under `COc1ccc(Cl)cc1NC(=O)c1noc2c1CCCC2` stands 1.58 µM [rising, full curve, poor fit]. In the case of `Cc1c(-c2ccncc2)oc2ccc(Br)cc2c1=O`, the AC50 under setting [1] is 10 µM [rising, partial curve, poor fit]. In the case of `Oc1ccc(-c2nccc(-c3ccc(Cl)cc3)n2)cc1`, under setting [1], the AC50 is 14.1 µM [rising, partial curve, poor fit].

For the compound `Cc1cc2ccccn2c1C(=O)c1ccc([N+](=O)[O-])o1`, under setting [1], the AC50 is 15.8 µM [falling, single point].

Take `COc1cccc(-c2nc(C(N)=O)c3[nH]c(=O)n(-c4cccc(Cl)c4)c3n2)c1OC`: under setting [1], the concentration at half-maximal activity (AC50) is 9.2 µM [falling, partial curve, poor fit]. For the compound `Cc1cc(Cl)c(S(=O)(=O)N2CCCCCC2)cc1OCC(N)=O`, the AC50 under setting [1] was 23.1 µM [falling, single point]. Turning to `Cc1cc(C(=O)N/N=C/c2ccc(N(C)C)cc2)c2ccccc2n1`, the AC50 runs as follows: under setting [1], 0.398 µM [falling, full curve, poor fit]; under setting [2], 31.6 µM [falling, partial curve, poor fit].

For the compound `CCN(CC)S(=O)(=O)c1ccc(N2CCOCC2)c(NS(=O)(=O)c2cc(C(C)(C)C)ccc2C)c1`, under setting [1], the AC50 is 2.31 µM [rising, partial curve, poor fit].

Turning to `Cn1c(N)c(C(=O)COC(=O)/C=C/c2ccccc2F)c(=O)n(C)c1=O`, the AC50 under setting [1] was 8.2 µM [rising, partial curve].

Take `O=C(CSc1nnc2scc(-c3ccccc3)n12)N1CCN(Cc2ccccc2)CC1`: the half-maximal activity concentration (AC50) under setting [1] was 0.731 µM [falling, partial curve, poor fit]. For `CCCCNC(=S)Nc1ccc2nc(N3CCN(CC)CC3)cc(C)c2c1`, under setting [1], the AC50 was 35.5 µM [falling, single point]. Still for that read-out and setting: the value for `Cc1[nH]c2ccc(F)cc2c1CCN(Cc1cccnc1)C(=S)Nc1ccc(F)cc1` was 14.1 µM [falling, single point].

As to `CCOc1ccc(NC(=O)Nc2cccc(C(=O)O)c2)cc1`, the AC50 under setting [1] is 2 µM [falling, full curve]. Still for that read-out and setting: under `O=C1C2C3c4ccccc4C(c4ccccc43)C2c2nc3ccccc3n21` (stereo not given) stands 0.731 µM [falling, partial curve, poor fit]; under `Cc1cccc(N2CCN(C(=O)C(C)C)CC2)c1C`, 4.11 µM [falling, single point]. As to `S=C(NCc1ccccn1)Nc1ccc(Cl)c(Cl)c1`, the half-maximal activity concentration (AC50) reads like this: under setting [1], 35.5 µM [falling, single point]; under setting [2], 35.5 µM [falling, single point]. For the compound `CC(=O)N1CCc2cc(C(=O)CN3CCCN(Cc4ccc(F)cc4)C3)ccc21`, the AC50 under setting [1] was 18.4 µM [rising, single point]. On the same count and under the same terms, under `CN(C)c1ccc(C(=O)Nc2nnc(C3=COCCO3)o2)cc1` stands 35.5 µM [falling, single point]; under `Cc1nc(Nc2ccc3c(c2)OCCO3)c2oc3ccccc3c2n1`, 0.794 µM [falling, full curve, poor fit]; under `CC/C(=N/N=C(\CC)c1ccccc1)c1ccccc1`, 29.1 µM [rising, single point]. With `O=C(NCCCc1ccccc1)c1cccc([N+](=O)[O-])c1`, the AC50 under setting [1] is 6.51 µM [rising, single point].

With `S=C(Nc1ccccc1)Nc1ccc(Br)cn1`, the AC50 under setting [1] was 22.4 µM [rising, partial curve, poor fit]. As to `COc1ccc(C2=Nn3c(nnc3-c3ccncc3)SC2)cc1OC`, the AC50 under setting [1] is 25.9 µM [falling, single point]. On the same count and under the same terms, the value for `COc1cccc2c1OCC1COc3c(c(=O)n(C)c(=O)n3C)C21` (stereo not given) was 3.66 µM [falling, single point]; that for `CCn1c2ccccc2c2cc(NC(=O)C(=O)N3CCOCC3)ccc21` was 11.2 µM [rising, partial curve, poor fit].

The term AC50 denotes the midpoint of the concentration-response curve, whichever way the signal moves.
